# Measured data: PubChem BioAssay AID652272 (Drosophila RNAi Screening Center, 2013)
# Aim: 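Genome-wide knock-down search for components of Hedgehog signalling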 (primary screen)
# Cells: Drosophila clone 8 (Cl8) cells
# Knock-down reagent: long dsRNA against Drosophila genes
# Read-out: 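Firefly light from a Hedgehog-responsive ptc promoter reporter and Renilla reference light, both read on a plate reader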
# Reading the numbers: firefly Hh reporter signal: higher = more ptc reporter light; Renilla reference signal: higher = more Renilla control light
# Rule for the call: 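Called a hit if the two-replicate mean z-score lies below -2 or above +3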
# Calls: active = hit: reporter lowered or raised; inactive = not a hit
# In all, the deposit lists about 21,000 reagents; this is an unselected part of those with a known target gene and a result. In the full data, 503 (2.4%) were called active. 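Raw plate light values, not normalised; calls rest on replicate z-scores that were not deposited; hits include reporter decreases as well as increases.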 A plus sign joins genes that one reagent is predicted to hit. Not given: the amount of reagent, the time to read-out.
target,DRSC id,"firefly Hh reporter signal, replicate 1","firefly Hh reporter signal, replicate 2","firefly Hh reporter signal, replicate 3","Renilla reference signal, replicate 1","Renilla reference signal, replicate 2",Call
Jig,DRSC14974,1.55e5,1.09e5,,5907,3222,inactive
Rpn9,DRSC16840,52251,62629,,3108,2983,inactive
CG10195,DRSC02026,1.06e5,71980,,2760,6883,inactive
Tpc1,DRSC15614,41169,81752,,1984,3325,inactive
Tpc1,DRSC16074,1.06e5,78500,,4406,2519,inactive
CG1927,DRSC08146,1.44e5,78800,,5641,3224,inactive
CG31688 + CG31687,DRSC02116,59205,26357,,1723,2848,inactive
Ldh,DRSC11198,40129,63845,,4458,4986,inactive
Ir94g,DRSC15231,7.16e5,1.41e5,,36756,3188,inactive
CG13042,DRSC09923,1.49e5,,,2866,4227,inactive
CG15432,DRSC00447,73832,36091,,1677,4118,inactive
PIG-F,DRSC11069,1.08e5,1.24e5,,3821,3538,inactive
Uch-L5,DRSC11314,1.10e5,27184,,5264,1916,inactive
Obp47b + CG7741,DRSC06330,99589,41840,,2349,3100,inactive
l(1)G0020,DRSC18198,1.13e5,2.43e5,,2710,9430,inactive
Cep290,DRSC08359,86474,64327,,3261,4512,inactive
Oatp26F,DRSC02149,77559,45723,,1915,4828,inactive
Oatp26F,DRSC02272,74770,39493,,1957,4144,inactive
Oatp26F,DRSC02695,80208,55159,,1769,5504,inactive
CG10194,DRSC02025,1.02e5,90119,,4632,3773,inactive
Vha36-3,DRSC18615,1.15e5,3.52e5,,4384,12776,inactive
CG15211,DRSC19657,75857,2.25e5,,1996,7490,inactive
fry,DRSC08993,1.51e5,3.16e5,,4411,14162,inactive
fry,DRSC10172,18196,27432,62269,2677,3605,inactive
fry,DRSC10709,26295,35640,52843,4934,3302,inactive
fry,DRSC10712,1.17e5,63273,,4279,2091,inactive
Gr43a,DRSC06658,1.04e5,47589,,2508,3996,inactive
Start1,DRSC04384,1.26e5,1.26e5,,4721,4589,inactive
CG6244,DRSC10609,1.50e5,,,5127,4424,inactive
CG18304,DRSC02664,1.35e5,57660,,3145,6358,inactive
CG6962,DRSC16153,58387,39523,,3319,2235,active
CG32986,DRSC02509,93921,53569,,2763,4861,inactive
Mal-A6,DRSC07233,1.02e5,53049,,2297,4380,inactive
CG14518,DRSC14870,1.21e5,1.20e5,,4978,2868,inactive
BEAF-32 + CG42254 (retired record),DRSC05503,1.85e5,2.91e5,,4736,11249,inactive
ND-30,DRSC08243,1.30e5,75832,,3738,2308,active
CG43759,DRSC19464,1.35e5,1.24e5,,3018,2965,inactive
CG43759,DRSC19543,74086,42996,,7124,1848,active
CG13297,DRSC09971,62449,60272,,7692,4507,inactive
Hcs,DRSC12070,2.52e5,,,5229,,inactive
Hcs,DRSC12256,61298,97149,,2413,2476,inactive
ImpE1,DRSC11195,66902,68373,,7645,5029,inactive
ImpE1,DRSC11196,45748,44984,,5714,3850,inactive
CG17724,DRSC06687,1.42e5,38636,,5154,1172,inactive
Snap25,DRSC21228,1.26e5,4.10e5,,4951,14411,inactive
Snap25,DRSC21236,8.99e5,3.51e5,,51732,8275,inactive
S-Lap4,DRSC10957,53272,54634,61324,3864,4887,inactive
Obp56d,DRSC06064,73816,52224,,2176,4016,inactive
Tmtc4,DRSC15702,68438,74489,,1398,1574,inactive
Wnt4,DRSC00976,2.54e5,88534,,14327,4640,inactive
Wnt4,DRSC03477,1.22e5,47104,,3041,5399,inactive
CG18081,DRSC10294,93458,,,4483,2939,inactive
Nep6,DRSC19877,42148,46117,,1472,1458,inactive
CG2767,DRSC15451,96080,71344,,4509,3179,inactive
CG8677 + CG31626,DRSC01838,6.28e5,2.22e5,1.59e5,6359,5601,inactive
spz4,DRSC02410,83501,63334,,2506,5090,inactive
enok,DRSC04096,1.45e5,1.14e5,,4524,3632,inactive
